From PMC12040169 (PLOS Biology, 2025)
This is one part of the list.

System: T1, CTL2-GFP (C. trachomatis L2/434/Bu, GFP-expressing)
T1 construct: L2/434/Bu, GFP-expressing
Parameters: species or system HeLa; Intracellular C. trachomatis growth in HeLa cells, bulk GFP fluorescence relative to DMSO
Settings: bulk GFP, single well; 28.5 h, 10 µM; inhibitor

Row | Compound | % of control remaining
1 | COC(=O)c1c(-c2ccc(F)cc2)csc1NC(=O)CSc1ncnc2sc3c(c12)CCC3 [CBK265976] | 121.269%
2 | CCN1CC(C(=O)N2CCN(C)CC2c2ccccc2)CC1=O (centres unmarked) [CBK282026] | 129.603%
3 | CC(C)N(CCOc1nccnc1-c1ccsc1)C(C)C [CBK106777] | 83.2421%
4 | COc1ccc(CCC2CCN(C)CC2)c(O)c1 [CBK283668] | 149.604%
5 | CCn1cc(C2CN(S(=O)(=O)c3cccc(C(C)C)c3)CCO2)cn1 (centres unmarked) [CBK304227] | 103.06%
6 | O=C(O)CCC1NC(=O)N(C2CCCCC2)C1=O (centres unmarked) [CBK287046] | 149.796%
7 | CCOC(=O)Nc1ccsc1C(=O)OC [CBK027880] | 137.935%
8 | Cc1ccc(C(=O)n2c(=S)nc3ccccn32)cc1 [CBK025729] | 157.712%
9 | COCC(=O)N1C2CCC(C2)[C@@H]1COc1ccc(F)cc1 (some centres unmarked) [CBK284603] | 110.004%
10 | CCOC(=O)c1ccccc1NC(=O)n1ccc2c(N3CCNCC3)cccc21 [CBK003731C] | 34.905%
11 | Cc1cc(C)n(CCC(=O)N2CCCC2c2nc3ccccc3[nH]2)n1 (centres unmarked) [CBK283664] | 92.1895%
12 | C[C@H](c1ccccc1)n1c(=O)[nH]c2ncc(-c3cncc4ccccc34)nc21 [CBK064709] | 130.169%
13 | O=C1C2N=NN(Cc3ccccc3)C2C(=O)N1C1CCCCC1 (centres unmarked) [CBK067389] | 106.882%
14 | Cc1ccnn1CCNC(=O)C(C)Cc1cccs1 (centres unmarked) [CBK281633] | 101.166%
15 | Cn1nc(C2CC2)cc1NS(C)(=O)=O [CBK038148] | 130.438%
16 | Cc1cc(NC(=O)CCn2cc(Br)cn2)no1 [CBK304326] | 126.187%
17 | O=C(c1ccccc1F)N1C[C@H](c2ccsc2)[C@H]2CN(Cc3ccsc3)CC[C@H]21 [CBK285661] | 111.105%
18 | Cc1nn(CC(=O)NC(C)c2cccnc2)c(C)c1C (centres unmarked) [CBK281489] | 128.556%
19 | COc1ccc(C(CNC(=O)C(=O)Nc2ccc(C(=O)O)cc2)N(C)C)cc1 (centres unmarked) [CBK286724] | 70.5573%
20 | Cc1cc(COc2cc(N3CCCC3)ncn2)no1 [CBK115898] | 100%
21 | O=C(Nc1nnc(-c2ccccn2)o1)c1cc(Cl)ccc1Cl [CBK287429] | 107.406%
22 | Cc1[nH]c2ccc(F)cc2c1-c1cn2c3c(nnc2n1)CCCC3 [CBK283172] | 140.858%
23 | O=C(Nc1ccccc1)[C@H]1O[C@H](CCN2CCN(c3ccccn3)CC2)CC[C@@H]1O [CBK288726] | 123.772%
24 | CCOC(=O)c1cnc2c(C)c(Cl)ccc2c1NCCN(C)C [CBK265965] | 100%
25 | COC(=O)C(C)CSc1ccc(C(C)(C)C)cc1 (centres unmarked) [CBK010499] | 109.04%
26 | Cc1ccc2cc3c(nc2c1)OCC(=O)N(Cc1ccco1)C3 [CBK283539] | 87.8222%
27 | CC(=O)N1CCC(N2CC[C@H](c3nnc(-c4ccco4)o3)C2)CC1 [CBK289395] | 121.656%

Row | Compound | % of control remaining
28 | O=C(Nc1ccn(C23CC4CC(CC(C4)C2)C3)n1)c1ccco1 [CBK288023] | 112.387%
29 | Cc1ccc(C2(O)CCN(CCNC(=O)C3CC3C)CC2)cc1 (centres unmarked) [CBK282607] | 120.709%
30 | Cc1c2c(n(-c3ccccc3)[n+]1[O-])NC1(CCC1)[C@@H]1C[C@@H](O)[C@@H](O)[C@H]21 [CBK303253] | 117.374%
31 | Cc1cccn2cc(-c3ccc4c(c3)CCN4S(C)(=O)=O)cc12 [CBK285226] | 142.182%
32 | COc1ccccc1-c1cnc(N)c(NCc2ccccc2)n1 [CBK063357] | 166.776%
33 | Cc1nc(-c2ccc(CNC(=O)c3cc(=O)[nH]c4ccccc34)o2)cs1 [CBK238261] | 146.068%
34 | CNC(=O)CN1CCC[C@@H]2NC(=O)COc3ccccc3C(=O)N[C@@H]3CCOC[C@@H]3C/C=C/C[C@@H]21 [CBK292040] | 175.537%
35 | c1ccc(-c2cc(CC3(NCc4cccnc4)COC3)no2)nc1 [CBK289238] | 155.619%
36 | CN(C)C(=O)Cn1nc(C(c2ccccc2)c2ccccc2)oc1=O [CBK283747] | 109.32%
37 | Cc1cc(C(=O)N2CCC(C(=O)c3ccnn3C)CC2)sc1C [CBK284428] | 133.167%
38 | Cn1c(C(=O)N2CCc3ccccc3C2)cc2ccccc21 [CBK200337] | 134.603%
39 | CCN1CCC(NC(=O)CSc2nc3ccccc3n2CC(C)C)CC1 [CBK304995] | 146.602%
40 | CCc1nc2ccc(C(=O)N3CCN(C)CC3)cn2c1N(C)Cc1ccc(NC(C)=O)cc1 [CBK145603] | 108.506%
41 | O=c1c2ccccc2nc2c3ccccc3c(NCc3ccccn3)nn12 [CBK265964] | 100%
42 | c1ccc2c(c1)nc(-c1cscn1)n2Cc1ccc(-c2nnn[nH]2)cc1 [CBK266979] | 155.329%
43 | O=C(Cn1c(C(F)(F)F)nc2ccccc21)NCCN1CCCC1 [CBK267150] | 117.043%
44 | Cc1ccc(S(=O)(=O)N(C)CC(=O)NCc2nc(-c3ccccc3)no2)cc1 [CBK268524] | 152.616%
45 | COc1ccc(C(=O)COC(=O)c2cc(-c3ccc(Cl)cc3)nc3ccc(C)cc23)cc1[N+](=O)[O-] [CBK264072] | 130.205%
46 | Cc1cc(S(=O)(=O)NCC(C)n2nc(C)c(C)c2C)ccc1F (centres unmarked) [CBK282010] | 139.899%
47 | CC1CN(Cc2cccc(CNc3ncccc3C#N)c2)CCO1 (centres unmarked) [CBK303994] | 109.525%
48 | CC(C)c1cc(C(=O)N2C[C@H](C)N(Cc3ccco3)C[C@@H]2C)on1 [CBK283053] | 105.349%
49 | CC(C)Oc1ncc(C(=O)NCCCC(=O)O)cc1Cl [CBK305192] | 141.267%
50 | O=C(CN1CCN(CCN2C(=O)c3cccc4cccc(c34)C2=O)CC1)c1ccc(Cl)cc1 [CBK265363] | 100%
51 | c1ccc2c(c1)nc1n2CCN1CCN1CCCCC1 [CBK278283C] | 108.616%
52 | CN(Cc1cnn(C)c1)c1nccc(N2CCN[C@H]3CS(=O)(=O)C[C@H]32)n1 [CBK306964] | 146.502%
53 | COc1cccc2cc(C(=O)NCCc3ccc(O)cc3)oc12 [CBK149802] | 109.959%
54 | O=S(=O)(NCC1COc2ccccc2O1)c1cc(Cl)sc1Cl (centres unmarked) [CBK057394] | 121.864%

Quoted from the listing:
In % of control remaining, Cn1nc(C2CC2)cc1NS(C)(=O)=O [CBK038148] has the entry 130.438%
In % of control remaining, Cc1nn(CC(=O)NC(C)c2cccnc2)c(C)c1C (centres unmarked) [CBK281489] has the entry 128.556%
In % of control remaining, O=C(O)CCC1NC(=O)N(C2CCCCC2)C1=O (centres unmarked) [CBK287046] has the entry 149.796%
In % of control remaining, Cc1ccc(C(=O)n2c(=S)nc3ccccn32)cc1 [CBK025729] has the entry 157.712%
In % of control remaining, Cc1ccnn1CCNC(=O)C(C)Cc1cccs1 (centres unmarked) [CBK281633] has the entry 101.166%

Continuation.

Row | Compound | % of control remaining
55 | N#Cc1ccc(CN2C(=O)c3ccccc3C2=O)cc1 [CBK029022] | 114.325%
56 | CCCn1cnc2cc(NC(=O)c3ccc(=O)n(CC(=O)N(C)c4ccccc4)c3)ccc21 [CBK286026] | 87.6739%
57 | NC(=O)CC1C(=O)N(c2ccc(F)cc2)C(=S)N1NC(=O)CCc1ccccc1 (centres unmarked) [CBK268978A] | 135.285%
58 | Cc1noc(CN2CCNC(=O)C2c2ccccc2C(F)(F)F)n1 (centres unmarked) [CBK306405] | 123.074%
59 | CC(C)N(C(=O)Cn1nc(-c2cccs2)ccc1=O)C(C)C [CBK282638] | 125.499%
60 | O=C(CNS(=O)(=O)c1ccc(Br)cc1)N1CCN(Cc2ccc3c(c2)OCO3)CC1 [CBK074358] | 108.993%
61 | Cc1cc(C(=O)NC2CCCC2)n[nH]1 [CBK200240] | 105.717%
62 | Nc1ncc(-c2ccc(C(=O)N3CCOCC3)cc2)nc1-c1ccc(C[C@H](N)C(=O)O)cc1 [CBK126364] | 124.429%
63 | Cc1nnc2n1CCN(C(=O)CC1OCCc3sccc31)C2 (centres unmarked) [CBK304956] | 130.441%
64 | CC(=O)c1ccccc1-c1ccc(C(=O)N2CCN(C)CC2)c(NCC2CC2)n1 [CBK076613] | 157.177%
65 | O=C(c1cc2c(s1)CCCC2)N1CCCCC1c1nnc(-c2nccc3ccccc23)o1 (centres unmarked) [CBK285577] | 121.917%
66 | O=C(OCc1ccccc1)N1CCC2(CC1)CN(c1ccc(C(F)(F)F)cn1)CCO2 [CBK161116T] | 88.947%
67 | Cc1ccccc1C(NC(=O)C1CCN(C(=O)CCC2CCCC2)CC1)c1ccccn1 (centres unmarked) [CBK059677] | 102.887%
68 | S=C(Nc1ccc(Nc2ccccc2)cc1)N1CCN(Cc2ccc3c(c2)OCO3)CC1 [CBK266141] | 137.95%
69 | O=C(Cc1cccc(F)c1)N1C2CCC1CC(O)(c1ccco1)C2 (centres unmarked) [CBK284138] | 120.349%
70 | COCCOCC(=O)N1CC(=O)N(c2ccccc2C#N)CC1C (centres unmarked) [CBK307258] | 128.648%
71 | CCN(CC(=O)NCc1ccc(C)cc1)S(=O)(=O)c1ccc(C)cc1 [CBK267511] | 105.345%
72 | O=C(c1cccnc1)C1CCN(C(=O)Cc2ccc(F)cc2)CC1 [CBK283515] | 131.149%
73 | CCCc1nc(-c2ccc3c(c2)CCCN3S(C)(=O)=O)cs1 [CBK306253] | 115.215%
74 | CCC1CCCCN1C(=O)c1cc(Br)c(Br)s1 (centres unmarked) [CBK089360] | 65.7661%
75 | S=C(NCCc1ccccc1)NCCn1cc(Cl)cn1 [CBK266912] | 105.475%
76 | Cc1c(Cl)cccc1NC(=S)NNC(=O)C(C)Oc1ccc(F)cc1F (centres unmarked) [CBK266823] | 123.804%
77 | CCOc1ccc(CSC2=NCCN2)cc1Cl [CBK027449C] | 100%
78 | CN(CCOC(=O)c1cccnc1)C(C)(C)C [CBK027543C] | 151.998%
79 | CC1(C)CCN(Cc2ccccc2)C1CC#N (centres unmarked) [CBK006978C] | 98.5116%
80 | Cc1ccc(OCCn2ccnc(N3CCNCC3)c2=O)c([N+](=O)[O-])n1 [CBK001381C] | 128.176%
